Source: PubChem BioAssay AID686938 (Drosophila RNAi Screening Center, 2013)

Purpose: 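Fly genes required for calcium entry once internal stores are emptied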 (primary screen)
Cell system: Drosophila S2R+ cells
Reagent: long dsRNA against Drosophila genes, about 0.25 µg dsRNA per well, roughly 10,000 cells
Time to read-out: 5 days of knock-down before the calcium assay
Conditions: thapsigargin (SERCA pump blocker) to empty calcium stores; entry signal taken 4 min after adding it
Read-out: 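Per-well fluo-4 fluorescence in two replicates, unnormalised, measured in resting cells and 4 min after store depletion by the SERCA blocker thapsigargin; ratio of the two present in few wells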
Direction: calcium entry signal: higher = stronger calcium signal after store depletion; resting calcium signal: higher = higher resting calcium signal
Call rule: 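Called when the plate z-score of the entry-to-rest ratio, mean of duplicates, falls below −3; wells with low overall dye signal (Fmax z below −2) or more than five off-targets excluded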
Meaning of the calls: active = strongly reduced calcium entry; inactive = no strong reduction
The screen tested about 23,000 reagents; shown is a random part of those with a known target gene and a result. In the full data, 75 (0.33%) are marked active. 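Raw plate signals without normalisation; calls rest on plate z-scores that were not deposited; ratio present for only 364 wells.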 Reagents against one gene are numbered here. A plus sign joins genes that one reagent is predicted to hit. No sequences are given here. Not given: the dose of the treatment.

Depletion of CG5569 resulted in: calcium entry signal, replicate 1 (fluorescence units) = 4.24e7; calcium entry signal, replicate 2 (fluorescence units) = 5.31e7; resting calcium signal, replicate 1 (fluorescence units) = 2.09e7; resting calcium signal, replicate 2 (fluorescence units) = 2.32e7; inactive.
For CG30065 the deposit lists calcium entry signal, replicate 1 (fluorescence units) = 2.36e7; calcium entry signal, replicate 2 (fluorescence units) = 4.36e7; resting calcium signal, replicate 1 (fluorescence units) = 1.18e7; resting calcium signal, replicate 2 (fluorescence units) = 1.92e7; inactive.
With knock-down of Miro, the record shows calcium entry signal, replicate 1 (fluorescence units) = 1.84e7; calcium entry signal, replicate 2 (fluorescence units) = 2.36e7; resting calcium signal, replicate 1 (fluorescence units) = 9.91e6; resting calcium signal, replicate 2 (fluorescence units) = 1.07e7; inactive.
With knock-down of CG32409, the screen gave calcium entry signal, replicate 1 (fluorescence units) = 4.17e7; calcium entry signal, replicate 2 (fluorescence units) = 4.95e7; resting calcium signal, replicate 1 (fluorescence units) = 2.13e7; resting calcium signal, replicate 2 (fluorescence units) = 2.30e7; inactive.
Against Sbat the deposit lists calcium entry signal, replicate 1 (fluorescence units) = 2.93e7; calcium entry signal, replicate 2 (fluorescence units) = 3.80e7; resting calcium signal, replicate 1 (fluorescence units) = 1.63e7; resting calcium signal, replicate 2 (fluorescence units) = 1.86e7; inactive.
Against Kots, the entry reads calcium entry signal, replicate 1 (fluorescence units) = 2.94e7; calcium entry signal, replicate 2 (fluorescence units) = 3.13e7; resting calcium signal, replicate 1 (fluorescence units) = 1.33e7; resting calcium signal, replicate 2 (fluorescence units) = 1.45e7; inactive.
fz4 gave calcium entry signal, replicate 1 (fluorescence units) = 3.52e7; calcium entry signal, replicate 2 (fluorescence units) = 4.66e7; resting calcium signal, replicate 1 (fluorescence units) = 1.64e7; resting calcium signal, replicate 2 (fluorescence units) = 2.12e7; inactive.
With knock-down of Slob #1, the record shows calcium entry signal, replicate 1 (fluorescence units) = 3.12e7; calcium entry signal, replicate 2 (fluorescence units) = 3.31e7; resting calcium signal, replicate 1 (fluorescence units) = 1.64e7; resting calcium signal, replicate 2 (fluorescence units) = 1.56e7; inactive.
Slob #2 scored calcium entry signal, replicate 1 (fluorescence units) = 5.00e7; resting calcium signal, replicate 1 (fluorescence units) = 2.63e7; inactive.
Against Ktl, the values are calcium entry signal, replicate 1 (fluorescence units) = 5.56e7; calcium entry signal, replicate 2 (fluorescence units) = 4.44e7; resting calcium signal, replicate 1 (fluorescence units) = 2.43e7; resting calcium signal, replicate 2 (fluorescence units) = 1.92e7; inactive.
With knock-down of Pex23 #1, the record shows calcium entry signal, replicate 1 (fluorescence units) = 3.07e7; calcium entry signal, replicate 2 (fluorescence units) = 4.34e7; resting calcium signal, replicate 1 (fluorescence units) = 1.53e7; resting calcium signal, replicate 2 (fluorescence units) = 3.14e7; inactive.
Silencing of Pex23 #2 gave: calcium entry signal, replicate 1 (fluorescence units) = 2.50e7; calcium entry signal, replicate 2 (fluorescence units) = 4.22e7; resting calcium signal, replicate 1 (fluorescence units) = 1.19e7; resting calcium signal, replicate 2 (fluorescence units) = 1.60e7; inactive.
Silencing of CG2201 resulted in: calcium entry signal, replicate 1 (fluorescence units) = 3.42e7; resting calcium signal, replicate 1 (fluorescence units) = 1.71e7; inactive.
After knock-down of SkpD the results were calcium entry signal, replicate 1 (fluorescence units) = 3.30e7; calcium entry signal, replicate 2 (fluorescence units) = 5.45e7; resting calcium signal, replicate 1 (fluorescence units) = 1.67e7; resting calcium signal, replicate 2 (fluorescence units) = 2.65e7; inactive.
With knock-down of CG3795 the results were calcium entry signal, replicate 1 (fluorescence units) = 2.92e7; calcium entry signal, replicate 2 (fluorescence units) = 4.10e7; resting calcium signal, replicate 1 (fluorescence units) = 1.39e7; resting calcium signal, replicate 2 (fluorescence units) = 1.96e7; inactive.
For Shark, the values are calcium entry signal, replicate 1 (fluorescence units) = 3.59e7; calcium entry signal, replicate 2 (fluorescence units) = 3.34e7; resting calcium signal, replicate 1 (fluorescence units) = 1.67e7; resting calcium signal, replicate 2 (fluorescence units) = 1.59e7; inactive.
Against net the deposit lists calcium entry signal, replicate 1 (fluorescence units) = 4.92e7; calcium entry signal, replicate 2 (fluorescence units) = 5.76e7; resting calcium signal, replicate 1 (fluorescence units) = 2.25e7; resting calcium signal, replicate 2 (fluorescence units) = 2.39e7; inactive.
For CG32052, the entry reads calcium entry signal, replicate 1 (fluorescence units) = 3.12e7; calcium entry signal, replicate 2 (fluorescence units) = 4.70e7; resting calcium signal, replicate 1 (fluorescence units) = 1.64e7; resting calcium signal, replicate 2 (fluorescence units) = 2.08e7; inactive.
Silencing of CG31183 #1 resulted in: calcium entry signal, replicate 1 (fluorescence units) = 3.65e7; calcium entry signal, replicate 2 (fluorescence units) = 4.66e7; resting calcium signal, replicate 1 (fluorescence units) = 1.67e7; resting calcium signal, replicate 2 (fluorescence units) = 6.00e7; inactive.
Silencing of CG31183 #2 gave: calcium entry signal, replicate 1 (fluorescence units) = 2.22e7; calcium entry signal, replicate 2 (fluorescence units) = 2.36e7; resting calcium signal, replicate 1 (fluorescence units) = 1.15e7; resting calcium signal, replicate 2 (fluorescence units) = 1.12e7; inactive.
CG34234 + Dh44-R2 scored calcium entry signal, replicate 1 (fluorescence units) = 3.96e7; calcium entry signal, replicate 2 (fluorescence units) = 4.30e7; resting calcium signal, replicate 1 (fluorescence units) = 1.65e7; resting calcium signal, replicate 2 (fluorescence units) = 2.09e7; inactive.

2 of these entries, reformatted:
CG31183 #2
- calcium entry signal, replicate 1 (fluorescence units): 2.22e7
- calcium entry signal, replicate 2 (fluorescence units): 2.36e7
- resting calcium signal, replicate 1 (fluorescence units): 1.15e7
- resting calcium signal, replicate 2 (fluorescence units): 1.12e7
- call: inactive

CG34234 + Dh44-R2
- calcium entry signal, replicate 1 (fluorescence units): 3.96e7
- calcium entry signal, replicate 2 (fluorescence units): 4.30e7
- resting calcium signal, replicate 1 (fluorescence units): 1.65e7
- resting calcium signal, replicate 2 (fluorescence units): 2.09e7
- call: inactive
